## Percent effect of library compounds

Chains of the proteins cited; added tags and fusions are not shown.
UniProt P9WNZ1, whole entry: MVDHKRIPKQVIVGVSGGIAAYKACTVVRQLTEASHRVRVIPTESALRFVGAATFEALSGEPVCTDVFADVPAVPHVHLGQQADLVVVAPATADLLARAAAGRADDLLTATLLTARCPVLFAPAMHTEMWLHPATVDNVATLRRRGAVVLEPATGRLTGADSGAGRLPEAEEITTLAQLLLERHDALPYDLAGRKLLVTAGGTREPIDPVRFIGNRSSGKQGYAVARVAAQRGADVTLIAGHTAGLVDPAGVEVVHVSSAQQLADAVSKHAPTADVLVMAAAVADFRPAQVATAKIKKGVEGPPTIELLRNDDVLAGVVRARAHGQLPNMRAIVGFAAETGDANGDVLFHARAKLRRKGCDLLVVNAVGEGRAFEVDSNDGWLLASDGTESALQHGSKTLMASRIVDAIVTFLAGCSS

Leishmania in macrophages: 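Cell assay of Leishmania donovani living inside macrophages; the read-out is not stated. Concentration: 30 µM. Direction is inferred from retests: higher values go with stronger inhibition. About 69,000 compounds were tested under these conditions; 1.5% (about 1,000) showed 50% or more at least once.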
CoaBC: 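Coenzyme A biosynthesis protein CoaBC, Mycobacterium tuberculosis (UniProt P9WNZ1). Enzyme assay of CoaBC with a phosphate dye (Biomol Green) read at 650 nm. Tested at 30 µM. Direction is inferred from only a few compounds that gave an IC50; most scored high, so higher reads as stronger inhibition. Most strong results did not repeat in a second test. Of about 67,000 compounds tested this way, about 40 (0.06%) reached 50% or more in at least one test.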

Values are the deposited “Percent Effect”, in %.
The controls that fix the scale are not given in the record; negative values are as filed.
This is an unselected part of the compounds tested.
Two or more numbers in one place are separate tests of the same structure; such repeats can differ widely.
A dash means the value is not listed here; it may have been measured.

| # | compound | Leishmania in macrophages | CoaBC |
|---|---|---|---|
| 1 | `CCOC(=O)CN1CCC(C(=O)c2cc(F)ccc2F)CC1` | -3.655 | 1.596 |
| 2 | `COCCNC(=O)Nc1ccc(CN2CCOC2=O)cc1` | 4.761 | 5.72 |
| 3 | `CCc1ncncc1C(=O)N1CCOC(c2nc(C)n[nH]2)C1` (stereo not drawn) | 6.928 | -3.655 |
| 4 | `COCC(C)NC(=O)CSc1ccc(F)c(Cl)c1` (stereo not drawn) | -22.61 | 1.01 |
| 5 | `Cc1ccc(NC2(C(=O)NC(C)c3ncn[nH]3)CCCC2)cc1` (stereo not drawn) | 5.879 | 0 |
| 6 | `Cc1cn2c(=O)c(-c3ccnc(N[C@@H]4CCOC4)n3)cnc2s1` | 0.2464 & 9.074 | -0.3614 |
| 7 | `CN(C)Cc1cn2c(n1)CN(C1CCOC1)CC2` (stereo not drawn) | -0.882 | -0.4938 |
| 8 | `Cc1ccc(=O)n(CC2(O)CCN(Cc3cnc(C)nc3)CC2)n1` | -15.11 | 1.111 |
| 9 | `COc1ccc(-n2ncc3c2NC(=O)CSC3C(C)C)cc1` (stereo not drawn) | 23.81 | -3.038 |
| 10 | `Cn1cc(-c2csc(N3CCN(C(=O)OC(C)(C)C)CC3)n2)cn1` | 47.73 | 7.173 |
| 11 | `CCC(=O)Nc1ccccc1Sc1nc(Br)nn1C` | -0.6298 | -4.348 |
| 12 | `Cc1nc(CN2CCC(N(C)Cc3nnc(C4CC4)n3C)C2)cs1` (stereo not drawn) | 33.88 | 7.675 |
| 13 | `CC(C)CNC(=O)c1cc2c(s1)CCN2Cc1cccnc1` | 4.866 & 15.61 | 6.977 |
| 14 | `Cc1nnc2n1CCN(C(=O)C1CCN(Cc3ccccc3)CC1)C2` | -30.63 | 8.252 |
| 15 | `CC(C)(C)CC(=O)NCC1CCCS1` (stereo not drawn) | 15.75 | 3.289 |
| 16 | `CC(C)CC(=O)N1CC[C@@H]2[C@H](CC1)N(S(C)(=O)=O)CCS2(=O)=O` | - | 6.832 |
| 17 | `Cc1cc(C)nc(N2CCC(c3noc(C)n3)CC2)n1` | 9.948 | 3.585 |
| 18 | `Cc1nccn1-c1ccc(NS(=O)(=O)c2cnn(C(C)C)c2)cn1` | 8.427 | -9.223 |
| 19 | `CCOC(=O)N(C)C1CCN(Cc2ccsc2)CC1` | -5.469 | -2.917 |
| 20 | `O=C(CCc1ccco1)Nc1cc(C(F)(F)F)c[nH]c1=O` | 7.217 | -1.173 |
| 21 | `CCc1nc(Cn2c(=O)c3c(C(F)(F)F)cc(C)nc3n2C)no1` | 20.21 | 8.178 |
| 22 | `Cc1noc(C)c1CNc1ccc2nc(C3CC3)sc2c1` | -7.893 | 0.2141 |
| 23 | `CC(C)NC(=O)N1CC(=O)c2sc(NC3CCCCC3)nc2C1` | 7.34 & 5.892 | -1.084 |
| 24 | `CN1CC(=O)N(c2ccccc2)CC12CCN(CC1CCOCC1)C2.O=C(O)C(F)(F)F.O=C(O)C(F)(F)F` (stereo not drawn) | 35.2 | - |
| 25 | `COc1nc2ccn(CCc3cc(O)nc(C)n3)c(=O)c2cc1C#N` | -5.94 | 12.74 |
| 26 | `CCS(=O)(=O)N1CCC(c2nnc(CN3CCOCC3)n2C)CC1` | 4.959 | 7.143 |
| 27 | `[H][C@@]12CN(S(=O)(=O)c3ccccc3)C[C@@]1([H])N(CCOC)C(=O)CO2` | -25.35 | - |
| 28 | `CC(C)Nc1nc2c(c(NC3CC3)n1)CCN(Cc1nccn1C)CC2.O=C(O)C(F)(F)F` | -13.9 | - |
| 29 | `CN(C)Cc1nnc2n1CCN(Cc1ccccn1)CC2` | 38.54 | -1.681 |
| 30 | `COCC1CN(Cc2ccc(C)s2)Cc2nnn(C)c21.O=C(O)C(F)(F)F` (stereo not drawn) | -1.11 | - |
| 31 | `COc1ccc(C(C)Nc2nc3c(C)nn(C)c3c(=O)n2C)cc1` (stereo not drawn) | -34.13 | 4.018 |
| 32 | `O=C(O)C(F)(F)F.O=C(O)C(F)(F)F.[H][C@@]12C[C@@H](OCc3cccnc3)CN1CCN(C(=O)c1cccc(F)c1)C2` | 20.12 | - |
| 33 | `CC(C)n1c(=O)c2ccccc2n(CCN(C)C)c1=O` | - | 0.8505 |
| 34 | `CN(C)CC(=O)N1CCN(C(=O)c2cccc3[nH]ncc23)CC1` | 26.99 | 0.1272 |
| 35 | `O=C(O)C(F)(F)F.[H][C@@]12OCCN(c3ncc(F)cn3)[C@@]1([H])CC[C@H]2OCCN1CCCC1` | 26.39 | - |
| 36 | `[H][C@]12CN(Cc3ccoc3)CCN1C[C@@H](c1ccccc1)[C@@H]2C(=O)NC` | -0.04411 | - |
| 37 | `c1ccc(Cc2nnc([C@H]3CCN(C4CCCCC4)C3)o2)cc1` | 11.62 | 7.269 |
| 38 | `O=C(Nc1cc(Cl)ccn1)c1nc(N2CCCC2)ncc1Cl` | -9.964 | 0.6048 |
| 39 | `Cc1n[nH]c(C)c1CCNC(=O)Nc1ccc2c(c1)COC2` | 30.02 | 2.676 |
| 40 | `CS(=O)(=O)N1CC[C@]2(O)CCN(CCCC(=O)c3ccccc3)C[C@@H]2C1` | - | 6.446 |
| 41 | `COc1ccc(Cl)cc1NC(=O)CCC1CCCN(Cc2ncon2)C1` (stereo not drawn) | 14.61 | -9.636 |

Some entries from above, unchanged:

{"compound": "[H][C@@]12CN(S(=O)(=O)c3ccccc3)C[C@@]1([H])N(CCOC)C(=O)CO2", "Leishmania in macrophages": -25.35}
{"compound": "CC(C)NC(=O)N1CC(=O)c2sc(NC3CCCCC3)nc2C1", "Leishmania in macrophages": "7.34 & 5.892", "CoaBC": -1.084}
{"compound": "CS(=O)(=O)N1CC[C@]2(O)CCN(CCCC(=O)c3ccccc3)C[C@@H]2C1", "CoaBC": 6.446}

Measurements from “University of Dundee, Small-Polar-MMV Screening Library” (2021), ChEMBL document CHEMBL3988442.